PubChem BioAssay AID743121 – NCATS | 2013
Screen: 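Genes whose silencing strengthens cell killing by camptothecin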 (primary screen). Cells: MDA-MB-231 cells, a human breast cancer line. Knock-down reagent: single siRNA against human genes, 20 nM siRNA (0.8 pmol per well). Time to read-out: 120 h (drug added 48 h after transfection, read 72 h later). Conditions: camptothecin 20 nM (about EC30) for 72 h; vehicle 0.1% DMSO in parallel plates. Measurement: 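CellTiter-Glo ATP signal, scaled to control siRNA as percent viability; sensitisation given as log2 of untreated divided by camptothecin-treated viability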. Direction: log2 vehicle/camptothecin viability: higher = stronger sensitisation to camptothecin; viability with camptothecin and viability without drug: higher = more viable cells. Call rule: 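Each gene scored by redundant siRNA activity (RSA) over its individual siRNA ratios; a gene is called active at p < 0.001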.
In all, the deposit lists about 26,000 reagents; shown is a random part of them. Over the whole deposit, 167 (0.63%) got an active call. 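Calls are per gene from RSA p-values that are not deposited; an individual active-marked siRNA can sensitise only weakly.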 The numbers tell different reagents against one gene apart.

log2 vehicle/camptothecin viability	viability with camptothecin (% of control)	viability without drug (% of control)	call	gene	reagent no.
0.42	49.7	66.5	inactive	VN1R4	1
-0.021	95.1	93.7	inactive	VN1R4	2
-0.0322	72.1	70.5	inactive	VN1R4	3
-0.126	52.8	48.4	inactive	VN1R4	4
-0.1	110	103	inactive	FGF6	1
0.952	26.6	51.4	inactive	FGF6	2
-0.016	101	100	inactive	FGF6	3
-0.0528	98.4	94.8	inactive	FGF6	4
-0.198	15.6	13.6	inactive	ALDOA	1
-0.683	43.4	27	inactive	ALDOA	2
0.216	1.16	1.35	inactive	ALDOA	3
-0.911	54.5	29	inactive	ALDOA	4
-0.000489	88.7	88.7	inactive	RAB3B	1
0.47	56.3	78	inactive	RAB3B	2
0.307	22.8	28.1	inactive	RAB3B	3
-0.35	83.5	65.5	inactive	RAB3B	4
-0.00216	74.7	74.6	inactive	INHBE	1
0.0344	79.7	81.7	inactive	INHBE	2
-0.094	39.2	36.7	inactive	INHBE	3
0.122	76.3	83	inactive	INHBE	4
-0.552	85.5	58.3	inactive	FGG	1
-0.0116	83.7	83	inactive	FGG	2
-0.373	50.6	39	inactive	FGG	3
0.183	82.5	93.7	inactive	FYN	1
-0.347	52	40.9	inactive	FYN	2
0.0781	67.1	70.8	inactive	FYN	3
-0.222	86.5	74.2	inactive	FYN	4
0.0155	108	109	inactive	RFX2	1
-0.176	123	109	inactive	RFX2	2
0.11	39.9	43.1	inactive	RFX2	3
0.484	80.2	112	inactive	RFX2	4
-0.154	44.6	40.1	inactive	CPA2	1
-0.0869	74.9	70.5	inactive	CPA2	2
-0.17	81.2	72.2	inactive	CPA2	3
-0.24	94.3	79.8	inactive	CPA2	4
-0.151	70.5	63.5	inactive	ITGB2	1
-0.189	72.8	63.9	inactive	ITGB2	2
-0.0456	97.7	94.7	inactive	ITGB2	3
-0.877	36.9	20.1	inactive	ITGB2	4
0.229	88.1	103	inactive	GNGT2	1
-0.136	95.1	86.5	inactive	GNGT2	2
0.00338	66.4	66.6	inactive	GNGT2	3
-0.0949	92.6	86.7	inactive	GNGT2	4
-0.0763	60.9	57.7	inactive	BPGM	1
0.158	107	119	inactive	BPGM	2
-0.396	61.9	47.1	inactive	BPGM	3
-0.443	107	78.5	inactive	BPGM	4
0.928	33.6	63.9	inactive	C11orf24	1
-0.082	94.4	89.2	inactive	C11orf24	2
-0.564	108	73.2	inactive	C11orf24	3
0.214	80.9	93.8	inactive	C11orf24	4
-0.27	55	45.6	inactive	EWSR1	1
0.465	17.5	24.1	inactive	EWSR1	2
-0.33	61.9	49.3	inactive	EWSR1	3
0.792	28.2	48.9	inactive	EWSR1	4
-0.182	117	103	inactive	PPIB	1
-0.375	56	43.2	inactive	PPIB	2
-0.418	31.5	23.5	inactive	PPIB	3
0.381	32.5	42.3	inactive	PPIB	4
-0.168	86.7	77.2	inactive	PHIP	1
-0.114	36.2	33.4	inactive	PHIP	2
-0.00514	60.2	60	inactive	PHIP	3
-0.0822	122	115	inactive	PHIP	4
-0.158	49.1	44	inactive	RNF170	1
0.0862	74.6	79.2	inactive	RNF170	2
-0.0808	82.4	78	inactive	RNF170	3
0.143	59.7	65.9	inactive	RNF170	4
-0.288	50.3	41.2	inactive	CRK	1
0.366	62.8	80.9	inactive	CRK	2
-0.251	57.4	48.3	inactive	CRK	3
-0.733	116	69.5	inactive	CRK	4
-0.326	95	75.8	inactive	RLIM	1
-0.058	48.1	46.2	inactive	RLIM	2
-0.51	37.5	26.4	inactive	RLIM	3
0.316	81.4	101	inactive	RLIM	4
-0.0765	58.8	55.8	inactive	GP1BA	1
-0.255	68.6	57.5	inactive	GP1BA	2
-0.044	101	97.8	inactive	GP1BA	3
-0.138	35.9	32.6	inactive	GP1BA	4
-0.0962	95.5	89.3	inactive	AOX1	1
-0.197	109	95.4	inactive	AOX1	2
0.0816	62.1	65.7	inactive	AOX1	3
-0.339	88.9	70.3	inactive	AOX1	4
-0.387	6.6	5.05	inactive	PSMB3	1
-0.0273	13.7	13.5	inactive	PSMB3	2
-0.292	27.3	22.3	inactive	PSMB3	3
-0.35	67.5	52.9	inactive	KLF10	1
-0.404	74.4	56.2	inactive	KLF10	2
-0.556	70.5	48	inactive	KLF10	3

Limited to “viability with camptothecin (% of control)” (4 entries from above):
CRK #1: 50.3
CRK #2: 62.8
CRK #3: 57.4
CRK #4: 116
